Data as given in patent US20250197820A1, “NUCLEIC ACID POLYMERASE AND ITS USE IN PRODUCING NON-DNA NUCLEOTIDE POLYMERS” (UNITED KINGDOM RESEARCH AND INNOVATION, priority 2021, published 2025).

Assay: Fidelity of 2′OMe-RNA synthesis by barcoded NGS
Assay type: biochemical
Details: for substitutions 2′OMeA −> C / substitutions 2′OMeA −> G / substitutions 2′OMeA −> T / substitutions 2′OMeC −> A / substitutions 2′OMeC −> G / substitutions 2′OMeC −> T / substitutions 2′OMeG −> A / substitutions 2′OMeG −> C / substitutions 2′OMeG −> T / substitutions 2′OMeU −> A / substitutions 2′OMeU −> C / substitutions 2′OMeU −> G: 2′OMe synthesis and RT by SSIII; for Mean error rate / Experiment 1: error rate / Experiment 2: error rate / Experiment 3: error rate / Experiment 4: error rate: 2′OMe-RNA synthesis; for Experiment 1: error rate / Experiment 2: error rate / Experiment 3: error rate / Experiment 4: error rate: RT by SSIII

B1: TGLLK: Tgo: V93Q, D141A, E143A, Y409G, A485L, I521L, F545L, E664K; previously described parent polymerase (protein, UniProt P56689 1-773, looked up, variant V93Q D141A E143A Y409G A485L I521L F545L E664K)
DNA polymerase: MILDTDYITEDGKPVIRIFKKENGEFKIDYDRNFEPYIYALLKDDSAIEDVKKITAERHGTTVRVVRAEKVKKKFLGRPIEVWKLYFTHPQDQPAIRDKIKEHPAVVDIYEYDIPFAKRYLIDKGLIPMEGDEELKMLAFAIATLYHEGEEFAEGPILMISYADEEGARVITWKNIDLPYVDVVSTEKEMIKRFLKVVKEKDPDVLITYNGDNFDFAYLKKRSEKLGVKFILGREGSEPKIQRMGDRFAVEVKGRIHFDLYPVIRRTINLPTYTLEAVYEAIFGQPKEKVYAEEIAQAWETGEGLERVARYSMEDAKVTYELGKEFFPMEAQLSRLVGQSLWDVSRSSTGNLVEWFLLRKAYERNELAPNKPDERELARRRESYAGGYVKEPERGLWENIVYLDFRSLGPSIIITHNVSPDTLNREGCEEYDVAPQVGHKFCKDFPGFIPSLLGDLLEERQKVKKKMKATIDPIEKKLLDYRQRLIKILANSFYGYYGYAKARWYCKECAESVTAWGRQYLETTIREIEEKFGFKVLYADTDGFLATIPGADAETVKKKAKEFLDYINAKLPGLLELEYEGFYKRGFFVTKKKYAVIDEEDKITTRGLEIVRRDWSEIAKETQARVLEAILKHGDVEEAVRIVKEVTEKLSKYEVPPEKLVIYKQITRDLKDYKATGPHVAVAKRLAARGIKIRPGTVISYIVLKGSGRIGDRAIPFDEFDPAKHKYDAEYYIENQVLPAVERILRAFGYRKEDLRYQKTRQVGLGAWLKPKT
substitutions 2′OMeA −> C: 609 per 10^6 bases | substitutions 2′OMeA −> G: 10 per 10^6 bases | substitutions 2′OMeA −> T: 9 per 10^6 bases | substitutions 2′OMeC −> A: 24 per 10^6 bases | substitutions 2′OMeC −> G: 1 per 10^6 bases | substitutions 2′OMeC −> T: 64 per 10^6 bases | substitutions 2′OMeG −> A: 184 per 10^6 bases | substitutions 2′OMeG −> C: 224 per 10^6 bases | substitutions 2′OMeG −> T: 216 per 10^6 bases | substitutions 2′OMeU −> A: 40 per 10^6 bases | substitutions 2′OMeU −> C: 76 per 10^6 bases | substitutions 2′OMeU −> G: 1 per 10^6 bases | Mean error rate: 1.5 +/− 0.5 ×10^−3 | Experiment 1: error rate: 1.61 × 10^−3 | Experiment 2: error rate: 6.87 × 10^−4 | Experiment 3: error rate: 1.93 × 10^−3 | Experiment 4: error rate: 1.65 × 10^−3

B2: 3M: Tgo polymerase as 2M but with E664R (SEQ ID NO: 4) (protein)
chain: MILDTDYITEDGKPVIRIFKKENGEFKIDYDRNFEPYIYALLKDDSAIEDVKKITAERHGTTVRVVRAEKVKKKFLGRPIEVWKLYFTHPQDQPAIRDKIKEHPAVVDIYEYDIPFAKRYLIDKGLIPMEGDEELKMLAFAIATLYHEGEEFAEGPILMISYADEEGARVITWKNIDLPYVDVVSTEKEMIKRFLKVVKEKDPDVLITYNGDNFDFAYLKKRSEKLGVKFILGREGSEPKIQRMGDRFAVEVKGRIHFDLYPVIRRTINLPTYTLEAVYEAIFGQPKEKVYAEEIAQAWETGEGLERVARYSMEDAKVTYELGKEFFPMEAQLSRLVGQSLWDVSRSSTGNLVEWFLLRKAYERNELAPNKPDERELARRRESYAGGYVKEPERGLWENIVYLDFRSLGPSIIITHNVSPDTLNREGCEEYDVAPQVGHKFCKDFPGFIPSLLGDLLEERQKVKKKMKATIDPIEKKLLDYRQRLIKILANSFYGYYGYAKARWYCKECAESVTAWGRQYLETTIREIEEKFGFKVLYADGDGFLATIPGADAETVKKKAKEFLDYINAKLPGLLELEYEGFYKRGFFVTKAKYAVIDEEDKITTRGLEIVRRDWSEIAKETQARVLEAILKHGDVEEAVRIVKEVTEKLSKYEVPPEKLVIYRQITRDLKDYKATGPHVAVAKRLAARGIKIRPGTVISYIVLKGSGRIGDRAIPFDEFDPAKHKYDAEYYIENQVLPAVERILRAFGYRKEDLRYQKTRQVGLGAWLKPKT
substitutions 2′OMeA −> C: 67 per 10^6 bases | substitutions 2′OMeA −> G: 120 per 10^6 bases | substitutions 2′OMeA −> T: 55 per 10^6 bases | substitutions 2′OMeC −> A: 88 per 10^6 bases | substitutions 2′OMeC −> G: 34 per 10^6 bases | substitutions 2′OMeC −> T: 188 per 10^6 bases | substitutions 2′OMeG −> A: 179 per 10^6 bases | substitutions 2′OMeG −> C: 58 per 10^6 bases | substitutions 2′OMeG −> T: 212 per 10^6 bases | substitutions 2′OMeU −> A: 6 per 10^6 bases | substitutions 2′OMeU −> C: 222 per 10^6 bases | substitutions 2′OMeU −> G: 1 per 10^6 bases | Mean error rate: 1.3 +/− 0.6 ×10^−3 | Experiment 1: error rate: 1.35 × 10^−3 | Experiment 2: error rate: 1.77 × 10^−3 | Experiment 3: error rate: 9.67 × 10^−4 | Experiment 4: error rate: 1.20 × 10^−3

B3: 2M: Tgo polymerase with V93Q, D141A, E143A, Y409G, A485L, I521L, T541G, F545L, K592A, E664K (SEQ ID NO: 3) (protein)
chain: MILDTDYITEDGKPVIRIFKKENGEFKIDYDRNFEPYIYALLKDDSAIEDVKKITAERHGTTVRVVRAEKVKKKFLGRPIEVWKLYFTHPQDQPAIRDKIKEHPAVVDIYEYDIPFAKRYLIDKGLIPMEGDEELKMLAFAIATLYHEGEEFAEGPILMISYADEEGARVITWKNIDLPYVDVVSTEKEMIKRFLKVVKEKDPDVLITYNGDNFDFAYLKKRSEKLGVKFILGREGSEPKIQRMGDRFAVEVKGRIHFDLYPVIRRTINLPTYTLEAVYEAIFGQPKEKVYAEEIAQAWETGEGLERVARYSMEDAKVTYELGKEFFPMEAQLSRLVGQSLWDVSRSSTGNLVEWFLLRKAYERNELAPNKPDERELARRRESYAGGYVKEPERGLWENIVYLDFRSLGPSIIITHNVSPDTLNREGCEEYDVAPQVGHKFCKDFPGFIPSLLGDLLEERQKVKKKMKATIDPIEKKLLDYRQRLIKILANSFYGYYGYAKARWYCKECAESVTAWGRQYLETTIREIEEKFGFKVLYADGDGFLATIPGADAETVKKKAKEFLDYINAKLPGLLELEYEGFYKRGFFVTKAKYAVIDEEDKITTRGLEIVRRDWSEIAKETQARVLEAILKHGDVEEAVRIVKEVTEKLSKYEVPPEKLVIYKQITRDLKDYKATGPHVAVAKRLAARGIKIRPGTVISYIVLKGSGRIGDRAIPFDEFDPAKHKYDAEYYIENQVLPAVERILRAFGYRKEDLRYQKTRQVGLGAWLKPKT
substitutions 2′OMeA −> C: 425 per 10^6 bases | substitutions 2′OMeA −> G: 5 per 10^6 bases | substitutions 2′OMeA −> T: 5 per 10^6 bases | substitutions 2′OMeC −> A: 5 per 10^6 bases | substitutions 2′OMeC −> G: 0 per 10^6 bases | substitutions 2′OMeC −> T: 23 per 10^6 bases | substitutions 2′OMeG −> A: 44 per 10^6 bases | substitutions 2′OMeG −> C: 16 per 10^6 bases | substitutions 2′OMeG −> T: 16 per 10^6 bases | substitutions 2′OMeU −> A: 7 per 10^6 bases | substitutions 2′OMeU −> C: 44 per 10^6 bases | substitutions 2′OMeU −> G: 0 per 10^6 bases | Mean error rate: 0.65 +/− 0.3 ×10^−3 | Experiment 1: error rate: 8.17 × 10^−4 | Experiment 2: error rate: 4.99 × 10^−4 | Experiment 3: error rate: 1.00 × 10^−3 | Experiment 4: error rate: 2.63 × 10^−4
